One experiment deals with HA-SMURF1 (human) (UniProt Q9HCE7). Nature of the experiment: co-IP; HA-SMURF1 and Flag-KEAP1 in LN229 cells, with or without TG (1 μM, 12 h); lysis in 50 mM Tris pH 8.0, 150 mM NaCl, 1% NP40, 0.5% sodium deoxycholate; protein G agarose; which tag was precipitated is not told.
A further experiment deals with Flag-SMURF1 (human) (UniProt Q9HCE7). The experiment can be described thus: co-IP; LN229 cells overexpressing GFP-KEAP1, transfected with Flag-SMURF1 or its deletion constructs; immunoprecipitation with Flag antibody, blots for GFP and Flag.

By UniProt entry, the sequences of proteins in these tests, tags left out. Where a name states a change or a piece, a line headed by the entry shows the natural chain unless it says otherwise. Chains listed by the source or under a name are the forms on record and can include a tag or linker.
Flag-SMURF1 (Q9HCE7, form named): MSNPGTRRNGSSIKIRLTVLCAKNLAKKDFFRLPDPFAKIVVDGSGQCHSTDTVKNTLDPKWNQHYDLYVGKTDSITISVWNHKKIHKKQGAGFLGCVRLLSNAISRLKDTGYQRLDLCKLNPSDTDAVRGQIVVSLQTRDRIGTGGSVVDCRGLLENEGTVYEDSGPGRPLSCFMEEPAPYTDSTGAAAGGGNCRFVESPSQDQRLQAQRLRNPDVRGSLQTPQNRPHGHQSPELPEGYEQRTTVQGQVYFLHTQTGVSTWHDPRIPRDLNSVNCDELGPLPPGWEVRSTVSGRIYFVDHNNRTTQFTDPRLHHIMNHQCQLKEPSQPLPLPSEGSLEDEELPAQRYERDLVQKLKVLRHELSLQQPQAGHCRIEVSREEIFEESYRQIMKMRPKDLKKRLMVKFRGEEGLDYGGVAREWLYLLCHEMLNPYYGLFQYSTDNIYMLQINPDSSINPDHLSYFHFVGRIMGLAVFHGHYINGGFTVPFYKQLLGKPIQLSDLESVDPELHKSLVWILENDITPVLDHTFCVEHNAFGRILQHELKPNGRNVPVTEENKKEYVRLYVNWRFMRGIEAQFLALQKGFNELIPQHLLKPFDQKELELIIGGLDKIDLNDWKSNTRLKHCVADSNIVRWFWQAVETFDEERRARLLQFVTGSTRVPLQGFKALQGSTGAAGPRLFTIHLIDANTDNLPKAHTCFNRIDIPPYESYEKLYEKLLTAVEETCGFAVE
UniProt Q14145: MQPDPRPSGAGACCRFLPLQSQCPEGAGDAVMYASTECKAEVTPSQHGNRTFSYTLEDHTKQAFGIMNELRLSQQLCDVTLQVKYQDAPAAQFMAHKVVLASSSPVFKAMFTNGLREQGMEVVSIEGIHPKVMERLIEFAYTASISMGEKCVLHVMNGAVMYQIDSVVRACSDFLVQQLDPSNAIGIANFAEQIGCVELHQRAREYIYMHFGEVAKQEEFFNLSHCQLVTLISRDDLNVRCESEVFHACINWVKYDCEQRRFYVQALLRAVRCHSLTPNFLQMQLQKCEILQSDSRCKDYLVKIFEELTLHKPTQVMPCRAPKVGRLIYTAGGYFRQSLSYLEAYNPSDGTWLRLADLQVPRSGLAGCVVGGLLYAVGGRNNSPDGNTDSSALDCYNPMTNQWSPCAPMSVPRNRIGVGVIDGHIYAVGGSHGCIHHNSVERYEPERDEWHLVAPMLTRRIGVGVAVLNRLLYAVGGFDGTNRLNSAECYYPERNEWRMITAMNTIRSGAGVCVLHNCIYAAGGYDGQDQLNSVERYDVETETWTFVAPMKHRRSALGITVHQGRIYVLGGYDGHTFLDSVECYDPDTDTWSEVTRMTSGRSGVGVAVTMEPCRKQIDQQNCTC

Results are given in words; binding and its absence hold for the method and conditions named. Binding seen in cells or lysates may run through a third protein. Some binding calls cover weakened binding; strength is not graded here.

This note sets out measurements from publication PMC10267134.

With Flag-KEAP1 (from UniProt Q14145 1-624), the binding entry with HA-SMURF1 (human) is listed as “binds”.
Take GFP-KEAP1 (from UniProt Q14145 1-624): in the experiment with Flag-SMURF1 (human), the binding result was “binds”.
